The campaign covered roughly 400,000 compounds. About 5,500 (1.4%) were called active. The inconclusive results got no clear call from the source; some entries with a clear call stand among them for comparison. The call rests on the fitted dose curve; in most records, active means well fitted cell-killing curve with a large enough effect; inconclusive means small, poorly fitted or top-dose-only effect, or effect the other way; inactive means flat fitted curve, though single readings scatter. Potencies of inconclusive entries are doubtful fits and often do not repeat.
Test: qHTS assay for MDR1-selective chemotherapeutics: Primary screen using the parental adenocarcinoma cell KB-3-1; further: nearly all actives have a fitted effect of over 60% in size
Details: KB-3-1 viability, CellTiter-Glo ATP luminescence, 72 h; activity change, negative = cytotoxic: at 46.1 µM (top of the series)
Summary of the method: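 Screening of KB-3-1 cells (DMEM, 10% FBS, phenol-red free) ran from lowest to highest compound concentration; after 72 h at 37 °C viability was read luminescently and curves fitted.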
On the % scale 0 is the no-effect control and ±100 the full control effect; potency means the concentration at half of the fitted maximal effect.

Structure (SMILES)	Potency	activity change, negative = cytotoxic
CCOC(=O)c1cc(-c2ccc(N3CCOCC3)cc2)nn1-c1ccc(F)cc1F	inconclusive: 23.1 µM [cytotoxic, single point]	–
COc1ccc(CNC(=O)c2csc(Cc3ccc(OC)cc3)n2)cc1	–	inconclusive: -31.7% [cytotoxic]
Cc1ccc(NCc2cc3cc4c(cc3n(CC(=O)Nc3ccc(F)cc3F)c2=O)OCCO4)cc1	inconclusive: 32.6 µM [cytotoxic, single point]	–
Cc1ccc(-c2nnc(Nc3ccc4c(c3)OCO4)c3ccccc23)cc1S(=O)(=O)NCCO	inconclusive: 18.4 µM [cytotoxic, single point]	–
COc1cccc(CNC(=O)C2CCN(Cc3cc4ccccc4n3Cc3ccccc3)CC2)c1OC	inconclusive: 29.1 µM [cytotoxic, single point]	–
Cc1ccc(Cl)cc1NC(=O)c1nnn(Cc2ccccc2)c1N	inconclusive: 23.1 µM [cytotoxic, single point]	–
CSc1ccc(CN(C)C(=O)c2cccc(S(=O)(=O)N3CCN(Cc4ccccc4)CC3)c2)cc1	inconclusive: 20.6 µM [cytotoxic, single point]	–
Cc1ccc(S(=O)(=O)N2CCN(c3ccnc4cc(Cl)ccc34)CC2)cc1	inconclusive: 18.4 µM [cytotoxic, single point]	–
CCN1CCN(c2nc3c(C)cccn3c(=O)c2/C=C(\C#N)C(=O)NCCOC)CC1	inconclusive: 1.84 µM [rising, full curve]	–
O=C(Cn1nnc(-c2ccccc2)n1)Nc1cccc(S(=O)(=O)N2CCCC2)c1	–	inactive: -25.9%
CC(=O)NN1C(=O)c2ccccc2NC1c1ccc([N+](=O)[O-])o1 (configuration not stated)	inconclusive: 16.4 µM [cytotoxic, partial curve, poor fit]	–
COc1ccc(CCNC(=O)COC(=O)c2cc(Cl)nc(Cl)c2)cc1	–	inconclusive: -7.78%
CN(C(=O)/C=C/c1ccc([N+](=O)[O-])s1)c1ccccc1	inconclusive: 23.1 µM [cytotoxic, partial curve]	–
O=C(Nc1ccncc1)C1CCCN(S(=O)(=O)c2cccc3cccnc23)C1 (configuration not stated)	inconclusive: 20.6 µM [cytotoxic, single point]	–
CC(=O)c1c(C)[nH]c(C(=O)OCC(=O)c2ccc(Br)cc2)c1C	inconclusive: 18.4 µM [cytotoxic, partial curve]	–
CC(Oc1cc2oc(=O)c3c(c2cc1Cl)CCC3)C(=O)NC1CC(C)(C)NC(C)(C)C1 (configuration not stated)	inconclusive: 9.2 µM [cytotoxic, partial curve, poor fit]	–
Cc1cccc(Cn2ccc(N)n2)c1	inconclusive: 29.1 µM [cytotoxic, single point]	–
O=C(Nc1ccc(C(F)(F)F)cc1)c1cc(S(=O)(=O)N2CCCc3ccccc32)ccc1F	inconclusive: 20.6 µM [cytotoxic, single point]	–
COCCn1c(=NC(=O)CSCC(=O)N2CCOCC2)sc2ccccc21	–	inactive: 12.3%
O=C(OC1CCOC1=O)c1cccc(S(=O)(=O)Nc2cccc(Cl)c2)c1 (configuration not stated)	inconclusive: 18.4 µM [rising, partial curve, poor fit]	–
CC1CC(NC(=O)c2c(O)nc3ccccn3c2=O)CC(C)(C)C1 (configuration not stated)	–	inactive: -6.9%
CCOc1ccccc1NC(=O)Nc1ccc2c(c1)CCC2	–	inactive: -19.7%
CC1CCN(C(=O)c2[nH]cnc2C(=O)N2CCN(c3ccccc3)CC2)CC1	inconclusive: 20.6 µM [cytotoxic, single point]	–

Structure (SMILES)	Potency	activity change, negative = cytotoxic
CC(C)C[C@H]1CN([C@@H](CC(C)C)CN2CCC[C@@H]2CN2C(=S)NC[C@@H]2Cc2ccc(O)cc2)C(=S)N1CCc1ccccc1	inconclusive: 29.1 µM [cytotoxic, single point]	–
Cc1nnsc1C(=O)Oc1ccc(C#N)cc1	–	inactive: 5.36%
COc1ccc(-n2c(SCC(=O)Nc3cc(C)on3)nc3c(c2=O)SCC3)cc1	–	inactive: -17.4%
CCCc1cc(=O)[nH]c(SCC(=O)c2c(N)n(C)c(=O)n(C)c2=O)n1	inconclusive: 29.1 µM [cytotoxic, single point]	–
COc1ccc(OC)c(-c2nnc3n2N=C(c2ccc(OC)c(OC)c2)CS3)c1	inconclusive: 0.0073 µM [cytotoxic, full curve, poor fit]	–
Cn1c(NN)nc2sc3c(c2c1=O)CCC3	inconclusive: 32.6 µM [cytotoxic, single point]	–
Cc1nn(-c2ccccc2)nc1C(=O)c1c(C)[nH]n(-c2ccccc2)c1=O	active: 16.4 µM	–
NC(=O)c1cc2n(n1)C(C(F)(F)F)CC(c1ccco1)N2 (configuration not stated)	inconclusive: 8.2 µM [cytotoxic, partial curve, poor fit]	–
CS(=O)(=O)c1cccc(-c2nnc(NC(=O)C3=COCCO3)o2)c1	–	inactive: 4.42%
COc1ccc(-c2nc(CSCC(=O)NC3CCCc4ccccc43)c(C)o2)cc1OC (configuration not stated)	–	inactive: -6.28%
CC(=O)/C(=N/Nc1ccccc1C)N1CCOCC1	–	inactive: -0.0154%
CCOc1ccc(C(C)NC(=O)Cc2ccccc2)cc1OCC (configuration not stated)	inconclusive: 10.3 µM [rising, partial curve]	–
O=C(COC(=O)/C=C/c1cccc([N+](=O)[O-])c1)NCc1ccc2c(c1)OCO2	inconclusive: 23.1 µM [rising, single point]	–
Cc1[nH]c2ccccc2c1C(=O)CN1CCC2(CC1)OCCO2	–	inactive: 4.6%
CCOc1cc(C=C2C(=O)c3ccccc3C2=O)ccc1OCC(=O)Nc1ccc(C)cc1	–	inactive: -1.07%
O=C(CCc1ccccc1)Nc1ccncc1	inconclusive: 18.4 µM [cytotoxic, single point]	–
CCCc1cc(=O)oc2cc(C)cc(OCC(=O)Nc3cccnc3)c12	–	inactive: 0%
COc1ccc(C(C[N+](=O)[O-])c2c(-c3ccccc3)cc3ccccn23)c(OC)c1 (configuration not stated)	inconclusive: 32.6 µM [cytotoxic, single point]	–
CN(C)c1cc(N/N=C/c2ccc(Cl)cc2)nc(N(C)C)n1	inconclusive: 20.6 µM [cytotoxic, partial curve]	–
O=C(OCCN1C(=O)c2cccc3c(N4CCOCC4)ccc(c23)C1=O)c1ccccc1Cl	inconclusive: 16.4 µM [cytotoxic, partial curve, poor fit]	–
CCOc1ccc(N(CC(=O)NCCC2=CCCCC2)S(=O)(=O)c2ccccc2)cc1	inconclusive: 29.1 µM [cytotoxic, single point]	–
CCOC(=O)CN1C(=O)C(O)(CC(=O)c2ccccn2)c2ccccc21 (configuration not stated)	inconclusive: 18.4 µM [cytotoxic, partial curve, poor fit]	–
COC(=O)c1cc(OCC(=O)Nc2ccc3c(c2)CCC3)cc(C(=O)OC)c1	–	inactive: -18.4%

Structure (SMILES)	Potency	activity change, negative = cytotoxic
Cc1ccc(C(c2nnnn2CC2CCCO2)N2CCN(c3cccc(C)c3C)CC2)cc1 (configuration not stated)	inconclusive: 18.4 µM [cytotoxic, single point]	–
Cc1cc(Cl)ccc1OC(C)C(=O)Nc1cccc(S(=O)(=O)N2CCOCC2)c1 (configuration not stated)	inconclusive: 23.1 µM [cytotoxic, single point]	–
CC1CCN(C(=O)c2ccc(CSc3ccc(Cl)cc3)cc2)CC1	inconclusive: 29.1 µM [cytotoxic, single point]	–
O=S(=O)(c1ccc2ccccc2c1)N1CCN(S(=O)(=O)c2c(F)cccc2F)CC1	inconclusive: 16.4 µM [rising, partial curve, poor fit]	–
COc1ccccc1/C=N/n1nnnc1N	inconclusive: 29.1 µM [cytotoxic, single point]	–
COc1ccc2oc(=N)c(C(=O)Nc3ccccc3Cl)cc2c1	–	inactive: -0.493%
CCN(CC)CCNC(=O)/C(=C/c1cn(C)c2ccccc12)NC(=O)c1ccc(OC)c(OC)c1	–	inactive: 11%
CCN1CCN(CCNC(=O)c2cc(Cl)c(NC(=O)C3=C(C)OCCS3)cc2OC)CC1	–	inactive: -0.241%
COc1ccc(Nc2ncc3c(n2)CCN(Cc2cccc(F)c2F)C3)c(OC)c1	inconclusive: 18.4 µM [rising, partial curve, poor fit]	–
C#CCOCCOCCOCCNc1nc(N2CCN(C(=O)CCCCCCCCCCNC(=O)Cn3cc(CCCCCN)nn3)CC2)nc(N2CCN(C(=O)CCCCCCCCCCNC(=O)[C@H](CO)n3cc(CCCSC)nn3)CC2)n1	inconclusive: 23.1 µM [cytotoxic, single point]	–
O=C(c1cccc(F)c1)N1CCN(c2cccc(Cl)c2)CC1	active: 20.6 µM	–
O=C(Nc1nc(-c2ccccc2)cs1)c1ccc2c(c1)S(=O)(=O)c1ccccc1C2=O	inconclusive: 29.1 µM [cytotoxic, single point]	–
CCOC(=O)C1Nc2ccc(OC(F)(F)F)cc2C2C=CCC12 (configuration not stated)	–	inactive: 1.81%
O=[N+]([O-])c1cc(S(=O)(=O)Nc2ccccc2)ccc1NCc1ccccc1	–	inactive: 1.38%
CC12CC(c3ccccc3O1)C(/C(N)=N/NC(=O)c1ccc(F)cc1)C(=O)N2 (configuration not stated)	inconclusive: 23.1 µM [cytotoxic, single point]	–
CN(N)C(=S)Nc1ccc(F)cc1	–	inactive: -11.8%
Cc1ccc(-n2c(=O)c3c(C)c(C)sc3n(Cc3cc(=O)n4ccccc4n3)c2=O)cc1C	inconclusive: 16.4 µM [rising, single point]	–
COc1ccccc1NC(=O)CCC(=O)c1ccc(-c2ccccc2)cc1	–	inactive: 0%
CCN(Cc1ccccc1)C(=O)C1CCC(CNS(=O)(=O)c2ccc3c(c2)CCCC(=O)N3)CC1 (configuration not stated)	inconclusive: 25.9 µM [cytotoxic, partial curve, poor fit]	–
CC1CCN(c2ccc3c(c2)S(=O)(=O)c2cccc(C(=O)NCc4cccc(F)c4)c2C3=O)CC1	–	inactive: 5.2%
COc1ccc(COC(=O)c2ccc(S(=O)(=O)N3CCC(C)CC3)cc2)cc1	–	inconclusive: 30.9%

Single records, from the list above. Order of values: Potency	activity change, negative = cytotoxic
COc1ccccc1/C=N/n1nnnc1N as listed: inconclusive: 29.1 µM [cytotoxic, single point]	–
CN(N)C(=S)Nc1ccc(F)cc1 as listed: –	inactive: -11.8%
O=C(c1cccc(F)c1)N1CCN(c2cccc(Cl)c2)CC1 as listed: active: 20.6 µM	–
